pKi: −log10 of the molar value. At least one structure is not confirmed: it was looked up by name or label, or the drawing left a doubt.
What was measured:
α3β4 nAChR = α3β4 nAChR (Homo sapiens (Human), UniProt P30926+P32297); assay: nAChR binding affinity, α3β4 subtype; conditions: Table 2
α4β2 nAChR = α4β2 nAChR (Homo sapiens (Human), UniProt P17787+P43681); assay: nAChR binding affinity, α4β2 subtype; conditions: Table 2
[1] = system: citric acid-induced cough in guinea pigs; assay: Citric acid-induced cough in guinea pigs, dry powder insufflation, nebulisation, oral and intraperitoneal administration (Example 28); format: in vivo, guinea pig; conditions: prophylactic intraperitoneal treatment at 3.0, 9.5 and 30 mg/kg, FIG. 9, p<0.01
Protocol: The mean concentration of citric acid was 1156.0±111.8 μg/L for both routes.
Regarding oral administration, the duration between compound administration and start of citric acid challenge was 30 minutes. The data was compared to atmospheric air (control).
Regarding intraperitoneal administration, compounds were administered approximately 10-15 mins before the cough challenge (citric acid inhalation challenge). Test compounds were dosed at between 1-30 mg/kg (as described herein for each experiment) while the positive control (codeine) was dosed at 30 mg/kg, in each case using a dosing volume of 10 ml/kg, by a single intraperitoneal injection.

By UniProt entry, the sequences of proteins in these tests, tags left out. Residues count along the entry.
UniProt P30926, 22-498: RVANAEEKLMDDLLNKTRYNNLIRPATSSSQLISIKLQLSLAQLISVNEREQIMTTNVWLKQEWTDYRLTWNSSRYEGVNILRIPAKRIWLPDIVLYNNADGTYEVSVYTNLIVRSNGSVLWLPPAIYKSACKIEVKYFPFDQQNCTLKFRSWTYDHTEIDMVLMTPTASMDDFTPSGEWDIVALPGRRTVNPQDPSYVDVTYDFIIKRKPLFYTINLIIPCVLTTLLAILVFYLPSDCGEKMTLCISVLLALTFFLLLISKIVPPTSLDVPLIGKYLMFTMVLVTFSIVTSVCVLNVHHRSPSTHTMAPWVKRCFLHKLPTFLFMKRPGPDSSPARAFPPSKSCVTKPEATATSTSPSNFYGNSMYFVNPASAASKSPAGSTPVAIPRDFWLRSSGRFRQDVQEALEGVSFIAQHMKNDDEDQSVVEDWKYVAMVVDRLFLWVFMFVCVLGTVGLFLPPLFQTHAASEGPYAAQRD
UniProt P32297, 32-505: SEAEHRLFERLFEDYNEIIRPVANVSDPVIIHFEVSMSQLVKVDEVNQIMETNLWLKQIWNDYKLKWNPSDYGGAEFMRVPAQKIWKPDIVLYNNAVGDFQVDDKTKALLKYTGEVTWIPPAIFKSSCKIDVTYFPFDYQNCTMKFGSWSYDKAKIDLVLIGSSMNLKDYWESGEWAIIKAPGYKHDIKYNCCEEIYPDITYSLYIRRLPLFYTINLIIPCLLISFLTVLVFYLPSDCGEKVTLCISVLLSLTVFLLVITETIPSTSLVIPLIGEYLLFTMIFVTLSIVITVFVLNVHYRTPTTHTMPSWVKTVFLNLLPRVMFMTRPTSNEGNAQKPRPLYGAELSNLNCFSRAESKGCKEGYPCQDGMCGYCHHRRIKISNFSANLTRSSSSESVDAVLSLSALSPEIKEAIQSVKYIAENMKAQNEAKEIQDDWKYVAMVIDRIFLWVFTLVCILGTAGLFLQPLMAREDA
UniProt P17787, 26-502: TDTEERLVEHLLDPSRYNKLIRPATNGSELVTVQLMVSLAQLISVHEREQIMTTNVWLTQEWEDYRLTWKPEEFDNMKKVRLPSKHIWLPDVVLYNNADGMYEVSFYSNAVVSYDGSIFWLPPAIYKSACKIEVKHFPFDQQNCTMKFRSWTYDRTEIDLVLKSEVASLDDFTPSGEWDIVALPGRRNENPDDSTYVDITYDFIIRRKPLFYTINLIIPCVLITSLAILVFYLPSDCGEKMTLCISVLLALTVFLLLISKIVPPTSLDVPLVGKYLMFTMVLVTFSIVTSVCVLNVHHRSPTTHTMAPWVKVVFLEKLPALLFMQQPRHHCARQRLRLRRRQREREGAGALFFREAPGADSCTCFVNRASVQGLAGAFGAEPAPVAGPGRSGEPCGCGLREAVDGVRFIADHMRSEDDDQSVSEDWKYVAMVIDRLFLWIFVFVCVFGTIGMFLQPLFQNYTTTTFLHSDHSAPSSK
UniProt P43681, 29-627: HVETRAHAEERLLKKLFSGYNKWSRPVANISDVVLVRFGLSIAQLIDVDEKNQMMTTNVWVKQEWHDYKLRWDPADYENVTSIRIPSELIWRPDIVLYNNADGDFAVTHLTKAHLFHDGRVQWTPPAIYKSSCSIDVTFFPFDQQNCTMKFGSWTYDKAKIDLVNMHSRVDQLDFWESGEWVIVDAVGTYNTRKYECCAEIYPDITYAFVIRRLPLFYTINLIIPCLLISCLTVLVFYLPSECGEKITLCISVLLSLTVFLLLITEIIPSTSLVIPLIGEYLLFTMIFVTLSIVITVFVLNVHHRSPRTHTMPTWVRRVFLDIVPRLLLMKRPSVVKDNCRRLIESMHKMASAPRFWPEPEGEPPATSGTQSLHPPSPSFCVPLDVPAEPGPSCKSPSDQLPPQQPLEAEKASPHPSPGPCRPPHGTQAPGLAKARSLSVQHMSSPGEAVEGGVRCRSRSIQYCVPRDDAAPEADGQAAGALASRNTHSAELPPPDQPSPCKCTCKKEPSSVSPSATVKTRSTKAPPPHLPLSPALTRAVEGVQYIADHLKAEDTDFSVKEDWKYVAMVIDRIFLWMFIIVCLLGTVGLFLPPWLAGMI

[2] = system: citric acid-induced cough in guinea pigs; assay: Citric acid-induced cough in guinea pigs, intraperitoneal injection (Example 27); conditions: dose not stated

c1ccc(-c2ccc(O[C@H]3C4CCN(CC4)[C@@H]3Cc3cccnc3)nn2)cc1 (relative stereo) [Compound 19, trans-3-(6-Phenylpyridazin-3-yl)oxy-2-(3-pyridylmethyl) quinuclidine]
pKi (α3β4 nAChR): 6.10 | pKi (α4β2 nAChR): 6.92

c1cncc(C[C@@H]2[C@@H](Oc3ccc(-c4ccc[nH]4)nn3)C3CCN2CC3)c1 [Compound 14, trans-2-(3-Pyridylmethyl)-3-[6-(1H-pyrrol-2-yl)pyridazin-3-yl]oxy-quinuclidine]
cough frequency compared to negative control (saline) [1]: suppression of cough frequency

c1cncc(C[C@@H]2[C@@H](Oc3ccc(-c4ccc5[nH]ccc5c4)nn3)C3CCN2CC3)c1 [Compound 11, trans-5-[6-[2-(3-Pyridylmethyl)quinuclidin-3-yl]oxypyridazin-3-yl]-1H-indole]
citric acid-induced cough counts compared with saline control [2]: significantly reduces
